# Assay results from US11339154B2, “Heterocycle-substituted bicyclic azole pesticides” (FMC Corporation, priority 2016, dated 2022).
# Read-outs that look alike come from different tables or passages of the source. Some entries share one result that the patent states for a list of compounds.
# Key:
# Type in all cases: in vivo
# [1] = test system: sweetpotato whitefly (Bemisia tabaci (Gennadius)); conditions: 250 ppm spray; 13 days
# Procedure: (§1) Formulation and Spray Methodology for Tests A-F
# (§2) Test compounds were formulated using a solution containing 10% acetone, 90% water and 300 ppm X-77® Spreader Lo-Foam Formula non-ionic surfactant containing alkylarylpolyoxyethylene, free fatty acids, glycols and isopropanol (Loveland Industries, Inc. Greeley, Colo., USA). The formulated compounds were applied in 1 mL of liquid through a SUJ2 atomizer nozzle with 1/8 JJ custom body (Spraying Systems Co. Wheaton, Ill., USA) positioned 1.27 cm (0.5 inches) above the top of each test unit. Test compounds were sprayed at the rates indicated, and each test was replicated three times.
# For evaluating control of the sweetpotato whitefly (Bemisia tabaci (Gennadius)) through contact and/or systemic means, the test unit consisted of a small open container with a 12-14-day-old cotton plant inside. Prior to the spray application, both cotyledons were removed from the plant, leaving one true leaf for the assay. Adult whiteflies were allowed to lay eggs on the plant and then were removed from the test unit. Cotton plants infested with at least 15 eggs were submitted to the test for spraying.
# Test compounds were formulated and sprayed at 250 and/or 50 ppm. After spraying, the test units were allowed to dry for 1 hour. The cylinders were then removed, and the units were taken to a growth chamber and held for 13 days at 28° C. and 50-70% relative humidity. Each test unit was then visually assessed for insect mortality.
# [2] = test system: cotton melon aphid (Aphis gossypii (Glover)); conditions: 6 days
# Procedure: as §1, §2
# For evaluating control of cotton melon aphid (Aphis gossypii (Glover)) through contact and/or systemic means, the test unit consisted of a small open container with a 6-7-day-old cotton plant inside. This was pre-infested with 30-40 insects on a piece of leaf according to the cut-leaf method, and the soil of the test unit was covered with a layer of sand.
# Test compounds were formulated and sprayed at 250 and/or 50 ppm. After spraying, the test units were maintained in a growth chamber for 6 days at 19° C. and 70% relative humidity. Each test unit was then visually assessed for insect mortality.
# [3] = test system: green peach aphid (Myzus persicae (Sulzer)); conditions: 6 days
# Procedure: as §1, §2
# For evaluating control of green peach aphid (Myzus persicae (Sulzer)) through contact and/or systemic means, the test unit consisted of a small open container with a 12-15-day-old radish plant inside. This was pre-infested by placing on a leaf of the test plant 30-40 aphids on a piece of leaf excised from a culture plant (cut-leaf method). The aphids moved onto the test plant as the leaf piece desiccated. After pre-infestation, the soil of the test unit was covered with a layer of sand.
# Test compounds were formulated and sprayed at 250 and/or 50 ppm. After spraying of the formulated test compound, each test unit was allowed to dry for 1 hour and then a black, screened cap was placed on top. The test units were held for 6 days in a growth chamber at 19-21° C. and 50-70% relative humidity. Each test unit was then visually assessed for insect mortality.
Structure (SMILES),mortality ([2]; 50 ppm spray),mortality ([3]; 50 ppm spray),further results
CC(C)(C#N)NC(=O)c1ccccc1-c1cccc2nn(-c3cccnc3)cc12 [Compound 2],,,mortality [1]: at least 50%
CN(C)C(=O)C(C)(C)NC(=O)c1ccc(-c2ccc3nn(-c4cccnc4)cc3c2)cc1 [Compound 15],at least 80%,,mortality ([2]; 250 ppm spray): at least 80%
CNC(=O)C(C)(C)NC(=O)c1ccc(-c2ccc3nn(-c4cccnc4)cc3c2)cc1 [Compound 16],at least 80%,,mortality ([2]; 250 ppm spray): at least 80%
O=C(NC1CC1)c1ccc(-c2ccc3nn(-c4cccnc4)cc3c2)c(Cl)c1 [Compound 17],at least 80%,,mortality ([2]; 250 ppm spray): at least 80%
O=C(NC1CC1)c1ccc(-c2ccc3nn(-c4cccnc4)cc3c2)c(F)c1 [Compound 19],at least 80%,,mortality ([2]; 250 ppm spray): at least 80%; mortality ([3]; 250 ppm spray): at least 80%
O=C(NC1CC1)c1ccc(-c2ccc3nn(-c4cccnc4)cc3c2)cc1Cl [Compound 21],at least 80%,,mortality ([2]; 250 ppm spray): at least 80%
COC(CNC(=O)c1ccc(-c2ccc3nn(-c4cccnc4)cc3c2)cc1Cl)OC [Compound 22],at least 80%,,mortality ([2]; 250 ppm spray): at least 80%; mortality ([3]; 250 ppm spray): at least 80%
COC(=O)C1(NC(=O)c2ccc(-c3ccc4nn(-c5cccnc5)cc4c3)cc2)CC1 [Compound 23],at least 80%,,mortality ([2]; 250 ppm spray): at least 80%
COC(CNC(=O)C1(NC(=O)c2ccc(-c3ccc4nn(-c5cccnc5)cc4c3)cc2)CC1)OC [Compound 30],at least 80%,at least 80%,
O=C(NC1CC1)c1ccc(-c2ccc3nn(-c4cccnc4)cc3c2)cc1F [Compound 33],at least 80%,,mortality ([2]; 250 ppm spray): at least 80%
COC(CNC(=O)c1ccc(-c2ccc3nn(-c4cccnc4)cc3c2)cc1F)OC [Compound 34],at least 80%,,mortality ([2]; 250 ppm spray): at least 80%
COC(=O)C(C)(C)NC(=O)c1ccc(-c2ccc3nn(-c4cncnc4)cc3c2)cc1 [Compound 36],,,mortality ([3]; 250 ppm spray): at least 80%
CC(C)(NC(=O)c1ccc(-c2ccc3nn(-c4cncnc4)cc3c2)cc1)C(=O)O [Compound 37],,,mortality ([2]; 250 ppm spray): at least 80%
COC(=O)C1(NC(=O)c2ccc(-c3ccc4nn(-c5cncnc5)cc4c3)cc2)CC1 [Compound 38],,,mortality ([2]; 250 ppm spray): at least 80%
CNC(=O)C(C)(C)NC(=O)c1ccc(-c2ccc3nn(-c4cncnc4)cc3c2)cc1 [Compound 39],,,mortality ([3]; 250 ppm spray): at least 80%
CC(=NOc1ncc(F)cn1)c1sc(-c2ccc3nn(-c4cccnc4)cc3c2)nc1C [Compound 52],at least 80%,,
CC(=NOc1cccc(C(F)(F)F)n1)c1sc(-c2ccc3nn(-c4cccnc4)cc3c2)nc1C [Compound 54],at least 80%,,
O=C(NCc1ncccn1)c1cnc(-c2ccc3nn(-c4cccnc4)cc3c2)s1 [Compound 60],,at least 80%,mortality ([3]; 250 ppm spray): at least 80%
O=C(NC1CC1)c1cnc(-c2ccc3nn(-c4cccnc4)cc3c2)s1 [Compound 61],,at least 80%,mortality ([3]; 250 ppm spray): at least 80%
COC(=O)C(C)(C)NC(=O)c1csc(-c2ccc3nn(-c4cccnc4)cc3c2)n1 [Compound 67],at least 80%,,
CNC(=O)C(C)(C)NC(=O)c1csc(-c2ccc3nn(-c4cccnc4)cc3c2)n1 [Compound 68],,at least 80%,
CN(C)C(=O)C(C)(C)NC(=O)c1csc(-c2ccc3nn(-c4cccnc4)cc3c2)n1 [Compound 69],at least 80%,at least 80%,
Cc1nc(-c2ccc3nn(-c4cccnc4)cc3c2)sc1C(=O)NC(C)(C)C#N [Compound 70],at least 80%,at least 80%,
CNC(=O)C(C)(C)NC(=O)c1sc(-c2ccc3nn(-c4cccnc4)cc3c2)nc1C [Compound 73],,at least 80%,mortality ([3]; 250 ppm spray): at least 80%
CCNC(=O)C(C)(C)NC(=O)c1sc(-c2ccc3nn(-c4cccnc4)cc3c2)nc1C [Compound 74],,at least 80%,mortality ([3]; 250 ppm spray): at least 80%
Cc1nc(-c2ccc3nn(-c4cccnc4)cc3c2)sc1C(=O)NC(C)C[S+](C)[O-] (stereo not shown) [Compound 75],,at least 80%,mortality ([3]; 250 ppm spray): at least 80%

Structure (SMILES),mortality ([2]; 50 ppm spray),mortality ([3]; 50 ppm spray),further results
COC(CNC(=O)c1csc(-c2cccc3nn(-c4cccnc4)cc23)n1)OC [Compound 76],at least 80%,,mortality ([2]; 250 ppm spray): at least 80%
COC(=O)COc1cccc(-c2ccc3nn(-c4cccnc4)cc3c2)c1 [Compound 101],at least 80%,,
CN(C)C(=O)COc1cccc(-c2ccc3nn(-c4cccnc4)cc3c2)c1 [Compound 103],at least 80%,at least 80%,
O=C(COc1cccc(-c2ccc3nn(-c4cccnc4)cc3c2)c1)NCc1ncccn1 [Compound 107],at least 80%,at least 80%,
CC(C)NC(=O)C(C)(C)NC(=O)c1nnc(-c2ccc3nn(-c4cccnc4)cc3c2)o1 [Compound 112],at least 80%,,
CSCC(C)(C)NC(=O)c1nnc(-c2ccc3nn(-c4cccnc4)cc3c2)s1 [Compound 119],at least 80%,,
CSCC(C)(C)NC(=O)c1nnc(-c2ccc3nn(-c4cccnc4)cc3c2)o1 [Compound 122],at least 80%,at least 80%,
C[S+]([O-])CC(C)(C)NC(=O)c1nnc(-c2ccc3nn(-c4cccnc4)cc3c2)s1 (stereo not shown) [Compound 123],at least 80%,at least 80%,
C[S+]([O-])CC(C)(C)NC(=O)c1nnc(-c2ccc3nn(-c4cccnc4)cc3c2)o1 (stereo not shown) [Compound 125],at least 80%,at least 80%,
CC(C)(CS(C)(=O)=O)NC(=O)c1nnc(-c2ccc3nn(-c4cccnc4)cc3c2)s1 [Compound 129],at least 80%,,
CN(C(=O)c1nnc(-c2ccc3nn(-c4cccnc4)cc3c2)s1)C(C)(C)C#N [Compound 131],at least 80%,,
CN(C)C(=O)C(C)(C)NC(=O)c1nnc(-c2ccc3nn(-c4cccnc4)cc3c2)s1 [Compound 135],at least 80%,at least 80%,
CSCC(C)NC(=O)c1nnc(-c2ccc3nn(-c4cccnc4)cc3c2)s1 (stereo not shown) [Compound 137],at least 80%,at least 80%,
CN(C)C(=O)C(C)(C)NC(=O)c1nnc(-c2ccc3nn(-c4cccnc4)cc3c2)o1 [Compound 139],at least 80%,at least 80%,
O=C(COc1ccc(-c2ccc3nn(-c4cccnc4)cc3c2)cn1)NCC(F)(F)F [Compound 145],at least 80%,at least 80%,
O=C(NCc1ncccn1)c1coc(-c2ccc3nn(-c4cccnc4)cc3c2)n1 [Compound 146],at least 80%,at least 80%,
CC(C)(NC(=O)c1nnc(-c2ccc3nn(-c4cccnc4)cc3c2)s1)C(=O)NC1CC1 [Compound 151],at least 80%,at least 80%,
CC(C[S+](C)[O-])NC(=O)c1nnc(-c2ccc3nn(-c4cccnc4)cc3c2)s1 (stereo not shown) [Compound 153],,at least 80%,
COC(=O)C1(NC(=O)c2coc(-c3ccc4nn(-c5cccnc5)cc4c3)n2)CC1 [Compound 154],at least 80%,at least 80%,
N#CCNC(=O)c1coc(-c2ccc3nn(-c4cccnc4)cc3c2)n1 [Compound 156],at least 80%,at least 80%,
O=C(NN1CCOCC1)c1coc(-c2ccc3nn(-c4cccnc4)cc3c2)n1 [Compound 158],at least 80%,at least 80%,
CNC(=O)C1(NC(=O)c2coc(-c3ccc4nn(-c5cccnc5)cc4c3)n2)CC1 [Compound 160],at least 80%,at least 80%,
CN(C)C(=O)C1(NC(=O)c2coc(-c3ccc4nn(-c5cccnc5)cc4c3)n2)CC1 [Compound 161],at least 80%,at least 80%,
CC(C)NC(=O)C1(NC(=O)c2coc(-c3ccc4nn(-c5cccnc5)cc4c3)n2)CC1 [Compound 162],at least 80%,at least 80%,
CC(C)(NC(=O)c1nnc(-c2ccc3nn(-c4cccnc4)cc3c2)o1)C(=O)NC1CC1 [Compound 169],at least 80%,,
